{"sequences": {"note": "Chains of the proteins cited; added tags and fusions are not shown.", "UniProt Q13395": "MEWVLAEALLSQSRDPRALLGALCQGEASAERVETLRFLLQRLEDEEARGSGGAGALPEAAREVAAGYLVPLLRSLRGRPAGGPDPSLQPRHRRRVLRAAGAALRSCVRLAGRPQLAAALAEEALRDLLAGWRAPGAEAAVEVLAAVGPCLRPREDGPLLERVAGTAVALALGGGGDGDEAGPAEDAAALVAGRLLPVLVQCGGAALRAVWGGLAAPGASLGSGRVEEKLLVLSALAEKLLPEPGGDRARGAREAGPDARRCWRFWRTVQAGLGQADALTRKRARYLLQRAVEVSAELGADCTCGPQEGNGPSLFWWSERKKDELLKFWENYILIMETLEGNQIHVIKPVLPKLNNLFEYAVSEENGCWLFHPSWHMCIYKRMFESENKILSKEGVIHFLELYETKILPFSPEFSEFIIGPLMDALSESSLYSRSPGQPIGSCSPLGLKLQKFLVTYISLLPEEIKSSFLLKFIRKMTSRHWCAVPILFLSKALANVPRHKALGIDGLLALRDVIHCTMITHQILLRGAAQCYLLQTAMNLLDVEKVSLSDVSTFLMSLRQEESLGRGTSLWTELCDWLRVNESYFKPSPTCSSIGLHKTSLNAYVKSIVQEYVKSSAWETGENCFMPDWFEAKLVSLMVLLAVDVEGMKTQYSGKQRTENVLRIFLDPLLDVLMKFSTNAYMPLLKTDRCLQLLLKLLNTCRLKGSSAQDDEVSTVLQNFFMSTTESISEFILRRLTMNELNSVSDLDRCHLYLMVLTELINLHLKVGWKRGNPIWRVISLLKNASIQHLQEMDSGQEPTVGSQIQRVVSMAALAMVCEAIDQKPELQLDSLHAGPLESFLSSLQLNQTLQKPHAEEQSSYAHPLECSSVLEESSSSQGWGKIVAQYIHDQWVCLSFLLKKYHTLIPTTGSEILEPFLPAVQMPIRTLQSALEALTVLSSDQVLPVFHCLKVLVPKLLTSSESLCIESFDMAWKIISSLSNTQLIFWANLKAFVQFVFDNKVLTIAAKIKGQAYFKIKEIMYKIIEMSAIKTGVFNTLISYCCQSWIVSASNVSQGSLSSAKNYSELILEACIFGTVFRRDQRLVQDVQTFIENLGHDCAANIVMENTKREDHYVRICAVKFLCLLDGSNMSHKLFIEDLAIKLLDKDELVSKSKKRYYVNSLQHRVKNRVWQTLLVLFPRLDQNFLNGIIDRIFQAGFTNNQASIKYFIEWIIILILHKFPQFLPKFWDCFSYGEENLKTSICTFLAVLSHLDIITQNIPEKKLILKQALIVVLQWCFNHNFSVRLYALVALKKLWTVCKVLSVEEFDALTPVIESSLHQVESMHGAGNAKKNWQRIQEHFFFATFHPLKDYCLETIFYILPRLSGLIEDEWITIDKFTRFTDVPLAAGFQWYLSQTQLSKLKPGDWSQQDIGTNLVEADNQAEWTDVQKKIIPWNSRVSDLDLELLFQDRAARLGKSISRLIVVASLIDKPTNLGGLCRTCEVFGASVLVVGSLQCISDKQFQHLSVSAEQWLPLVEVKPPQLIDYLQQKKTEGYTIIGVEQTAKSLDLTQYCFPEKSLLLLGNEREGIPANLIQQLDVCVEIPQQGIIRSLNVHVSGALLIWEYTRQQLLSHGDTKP"}, "source": "paper doi:10.1101/2025.01.24.634708", "binders": {"B1": {"name": "ZNF639 (protein, UniProt Q9UID6 1-485)", "chain": "MNEYPKKRKRKTLHPSRYSDSSGISRIADGFNGIFSDHCYSVCSMRQPDLKYFDNKDDDSDTETSNDLPKFADGIKARNRNQNYLVPSPVLRILDHTAFSTEKSADIVICDEECDSPESVNQQTQEESPIEVHTAEDVPIAVEVHAISEDYDIETENNSSESLQDQTDEEPPAKLCKILDKSQALNVTAQQKWPLLRANSSGLYKCELCEFNSKYFSDLKQHMILKHKRTDSNVCRVCKESFSTNMLLIEHAKLHEEDPYICKYCDYKTVIFENLSQHIADTHFSDHLYWCEQCDVQFSSSSELYLHFQEHSCDEQYLCQFCEHETNDPEDLHSHVVNEHACKLIELSDKYNNGEHGQYSLLSKITFDKCKNFFVCQVCGFRSRLHTNVNRHVAIEHTKIFPHVCDDCGKGFSSMLEYCKHLNSHLSEGIYLCQYCEYSTGQIEDLKIHLDFKHSADLPHKCSDCLMRFGNERELISHLPVHETT"}, "B2": {"name": "ZBTB2 (protein, UniProt Q8N680 1-514)", "chain": "MDLANHGLILLQQLNAQREFGFLCDCTVAIGDVYFKAHKSVLASFSNYFKMLFVHQTSECVRLKPTDIQPDIFSYLLHLMYTGKMAPQLIDPVRLEQGIKFLHAYPLIQEASLASQGAFSHPDQVFPLASSLYGIQIADHQLRQATKIASAPEKLGRDPRPQTSRISQEQVPEASQLSQLTSNLAQVNRTNMTPSDPLQTSLSPELVSTPVPPPPPGEETNLEASSSDEQPASLTIAHVKPSIMKRNGSFPKYYACHLCGRRFTLRSSLREHLQIHTGVPFTSSQQGESRVPLTLCSNAADLGKDAMEVPEAGMISDSELQHISDSPIIDGQQQSETPPPSDIADIDNLEQADQEREVKRRKYECTICGRKFIQKSHWREHMYIHTGKPFKCSTCDKSFCRANQAARHVCLNQSIDTYTMVDKQTLELCTFEEGSQMDNMLVQTNKPYKCNLCDKTFSTPNEVVKHSCQNQNSDVFALDEGRSILLGSGDSEVTEPDHPVLASIKKEQETVLLD"}, "B3": {"name": "ZBTB25 (protein, UniProt P24278 1-435)", "chain": "MDTASHSLVLLQQLNMQREFGFLCDCTVAIGDVYFKAHRAVLAAFSNYFKMIFIHQTSECIKIQPTDIQPDIFSYLLHIMYTGKGPKQIVDHSRLEEGIRFLHADYLSHIATEMNQVFSPETVQSSNLYGIQISTTQKTVVKQGLEVKEAPSSNSGNRAAVQGDHPQLQLSLAIGLDDGTADQQRACPATQALEEHQKPPVSIKQERCDPESVISQSHPSPSSEVTGPTFTENSVKIHLCHYCGERFDSRSNLRQHLHTHVSGSLPFGVPASILESNDLGEVHPLNENSEALECRRLSSFIVKENEQQPDHTNRGTTEPLQISQVSLISKDTEPVELNCNFSFSRKRKMSCTICGHKFPRKSQLLEHMYTHKGKSYRYNRCQRFGNALAQRFQPYCDSWSDVSLKSSRLSQEHLDLPCALESELTQENVDTILVE"}}, "experiment_in_all_cases": "co-IP", "key": {"[1]": {"target": "T1, ZBTB25 with a C-terminal FLAG and HA tag (human (cDNA from Jurkat cells)) (UniProt P24278)", "T1 sequence": "B3 chain"}, "[2]": {"target": "TAR (HIV-1) RNA binding protein 1 (TARBP1) with a C-terminal FLAG and HA tag (human) (UniProt Q13395)"}, "[3]": {"target": "T2, ZBTB2 with a C-terminal FLAG and HA tag (human (cDNA from Jurkat cells)) (UniProt Q8N680)", "T2 sequence": "B2 chain"}, "[4]": {"target": "T3, ZNF639 with a C-terminal FLAG and HA tag (human (cDNA from Jurkat cells)) (UniProt Q9UID6)", "T3 sequence": "B1 chain"}}, "note": "These are yes or no findings as the source states them, for the method shown. In cells and extracts the contact can be indirect. Some binding calls cover weakened binding; strength is not graded here. For some of these results: Tags and fused reporters may be left off the sequences shown.", "data": [{"binder": "B1", "values": [{"measurement": "binding", "setting": "[1]", "result": "binds"}, {"measurement": "binding", "setting": "[2]", "result": "binds"}]}, {"binder": "B2", "values": [{"measurement": "binding", "setting": "[1]", "result": "binds"}, {"measurement": "binding", "setting": "[2]", "result": "binds"}]}, {"binder": "B3", "values": [{"measurement": "binding", "setting": "[3]", "result": "binds"}, {"measurement": "binding", "setting": "[2]", "result": "binds"}, {"measurement": "binding", "setting": "[4]", "result": "binds"}]}]}
